We go through 54 sequences from publication PMC7819943, “Rice protein-binding microarrays: a tool to detect cis-acting elements near promoter regions in rice”.

Amino acid sequences for entries named in this document (tags omitted).
UniProt Q0JBA9, entry or part of it: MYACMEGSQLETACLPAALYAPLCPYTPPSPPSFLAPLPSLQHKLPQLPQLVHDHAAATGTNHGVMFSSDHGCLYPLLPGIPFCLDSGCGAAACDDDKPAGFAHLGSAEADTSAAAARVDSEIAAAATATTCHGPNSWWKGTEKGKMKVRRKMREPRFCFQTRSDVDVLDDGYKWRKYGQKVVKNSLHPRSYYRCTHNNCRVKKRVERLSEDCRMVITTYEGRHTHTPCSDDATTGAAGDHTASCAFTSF

The other results are listed elsewhere or left out.

This assay concerns the target OsWRKY34 (Oryza sativa, UniProt Q0JBA9 1-250). Description: protein-binding microarray (RPBM); PBS, 2% BSA, 51.3 ng/ul salmon testes DNA, 50 uM zinc acetate, 200 nM TF, 25 C, 1 h; high values mean tight binding. Particulars: protein: recombinant; tags: N-terminal polyhistidine and DsRed monomer fusion (pET32a); label: CyDye5-dUTP incorporated in the synthesized complementary strand; 3' TTTTT single-stranded linker to array surface; dsDNA, one strand shown. In outline:
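In PBS with 2% BSA, salmon testes DNA and 50 µM zinc acetate, 200 nM protein was incubated on a custom Agilent array at 25 °C for 1 h and then washed off. The array had been made double-stranded by primer extension with Cy5-dUTP and blocked with 2% BSA. The proteins were transcription factors fused N-terminally to polyhistidine and DsRed, expressed in E. coli BL21-CodonPlus and purified on Ni–NTA. The binding signal is per-feature fluorescence intensity (arbitrary units) from an Axon 4000B scanner.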
On to “AGACAAGACCACGGTCAAACAATGCTTTGGACGGGGTTGACGGAGTCACCTAGTGCAG”, for which the binding signal was 11500 fluorescence intensity (a.u.).
On to “ACTTTTCTGAATATTTACTCTCCATCTCTCTCTCACAAAACGGAGTCACCTAGTGCAG”, for which the binding signal is 8060 fluorescence intensity (a.u.).
The figure for “TCATTGTTTCCATCTCTTTGCCTCAATCTCGCATATACCCCGGAGTCACCTAGTGCAG” is 8460 fluorescence intensity (a.u.).
Take “GTTGTTTTCGCTTCAGGTTCAGTGCAGTCACGAGCGCGGACGGAGTCACCTAGTGCAG”: the binding signal was 9250 fluorescence intensity (a.u.).
Regarding “GTCTGCGTGATCCGACAACCGCCTGTCCGCCTCGCCTCCGCGGAGTCACCTAGTGCAG”, the binding signal is 9710 fluorescence intensity (a.u.).
To “TTGTTGTTCCACATGATTTTGGGGCATGCTTTCACTATCACGGAGTCACCTAGTGCAG” belongs 12300 fluorescence intensity (a.u.); to “GGCTGGCTGGGCTGGTGGGTACTGGGTTTCACTGATGAAACGGAGTCACCTAGTGCAG”, 12300 fluorescence intensity (a.u.).
To “CCCTTGTTGTGTCTGTCCCTTCCTTACATCACATCCATCCCGGAGTCACCTAGTGCAG” belongs 8200 fluorescence intensity (a.u.); to “CTTCCATGGTTCGTTACTGTATCGAGTTCATGTATTAGTACGGAGTCACCTAGTGCAG”, 8110 fluorescence intensity (a.u.).
To “CTCTCTCAGATCCTACGTCCCAAATCGCTCCCACCTCACCCGGAGTCACCTAGTGCAG” belongs 8080 fluorescence intensity (a.u.); to “GCTCCCCACCGCCACCTCGCCCGCTCGCTGTCCCCAGATGCGGAGTCACCTAGTGCAG”, 9560 fluorescence intensity (a.u.).
As to “GGTTTGGAGGCGGAGGTGGCGCTGGAGGAGGCGGCGGTCTCGGAGTCACCTAGTGCAG”, the binding signal was 9970 fluorescence intensity (a.u.).
The figure for “TCGTCCGTTGTGTTGTGTAATATATTAACATATAATTTTTCGGAGTCACCTAGTGCAG” is 10100 fluorescence intensity (a.u.).
The figure for “AGGGAGGGAGGGAGGAGGAAGGAGGACTGACATGTGGGCCCGGAGTCACCTAGTGCAG” is 9250 fluorescence intensity (a.u.); for “TTCCAACGAACCTCACGCGACCCTTCGTCCAGCCCAATACCGGAGTCACCTAGTGCAG” it is 8240 fluorescence intensity (a.u.); for “TCCGCCGCCGCCACCACCACCACCCACCCGGATCCCCACCCGGAGTCACCTAGTGCAG” it is 10200 fluorescence intensity (a.u.).
The figure for “GTATTGTTTGTCTGTTTGTATCTTTATTTCTCACTCTTGTCGGAGTCACCTAGTGCAG” is 10600 fluorescence intensity (a.u.).
For the sequence “GCTTATTCTGTTCGCATGTGGATCGTATCCCTTTTTTAAGCGGAGTCACCTAGTGCAG”, the binding signal was 9600 fluorescence intensity (a.u.).
To “CGACTGATTGGTTGGGGTCATGGTTGGAACAAAATTTCCTCGGAGTCACCTAGTGCAG” belongs 13000 fluorescence intensity (a.u.); to “ATCGACCTCCATTTTAACGTACGACTCCCTAAGAGACCCGCGGAGTCACCTAGTGCAG”, 9660 fluorescence intensity (a.u.); to “CACCACATCACGCCGCCGTTTCGTGCTCATCATCTCTATCCGGAGTCACCTAGTGCAG”, 9700 fluorescence intensity (a.u.).
As to “AACTCATGCAGTTTTACCGTTCATTTTCTGAATCTTAATTCGGAGTCACCTAGTGCAG”, the binding signal was 8650 fluorescence intensity (a.u.).
In the case of “CCGCCGCCTGCTCACCGTTCCGGCTTCCCTCGCACTCTTCCGGAGTCACCTAGTGCAG”, the binding signal is 10400 fluorescence intensity (a.u.).
To “GTAGTCATTCACGTGTTCCTCTTCTCCAGTACTAGTAGCTCGGAGTCACCTAGTGCAG” belongs 9710 fluorescence intensity (a.u.).
The figure for “GTCCATGAAATTCATTCGCTTGATCAAACAGTGCTTTAATCGGAGTCACCTAGTGCAG” is 8060 fluorescence intensity (a.u.); for “ACCCACACCCATCAGGACTCGGCCACTCGTGTCTCTCTCTCGGAGTCACCTAGTGCAG” it is 8730 fluorescence intensity (a.u.); for “TTGCTGGTGGGAGGAGGAGGAGGAGGTTGAGAGAGGTATGCGGAGTCACCTAGTGCAG” it is 8620 fluorescence intensity (a.u.).
To “TCCCAGTAGCTCACTGCCTCTCTCGGTTTCTCGGTTCTCTCGGAGTCACCTAGTGCAG” belongs 8200 fluorescence intensity (a.u.); to “GCCTGAGCGACGCGCCGACCGGCCGAAGGCTCCGCGTTGACGGAGTCACCTAGTGCAG”, 8660 fluorescence intensity (a.u.); to “TCCATTTCCTCTCGTTCCTCTCTCTCTCTCTCTCTCTCTCCGGAGTCACCTAGTGCAG”, 10300 fluorescence intensity (a.u.).
On to “AGTTTTTCTAGTCCTTCTTAATGCATGTGTCACCTTCTAACGGAGTCACCTAGTGCAG”, for which the binding signal was 10300 fluorescence intensity (a.u.).
To “TCTCCTACTCAGCATTGCGTCGTCGATGAAACCCTTTTTTCGGAGTCACCTAGTGCAG” belongs 10700 fluorescence intensity (a.u.).
The figure for “GAAACGGAAGATTTCGCCATGTTTTGCCCGCCTCCGCCCACGGAGTCACCTAGTGCAG” is 11200 fluorescence intensity (a.u.); for “CCACGTTTTCAGGCTGTTTGCAAATTTTCTCTCTCATCTACGGAGTCACCTAGTGCAG” it is 12200 fluorescence intensity (a.u.).
As to “TGCCTGATGCTTCTTTTTTTTTTTTACTAATTAGTTTCTTCGGAGTCACCTAGTGCAG”, the binding signal was 8300 fluorescence intensity (a.u.).
As for “GCCTAGCCTATTCTCGCCGCCGTCTCCGCCGCCGCCGATGCGGAGTCACCTAGTGCAG”, the binding signal is 8380 fluorescence intensity (a.u.).
Turning to “GGCTGCCTGTGCATGGGAGGCGATGTGAGGGTGGGCAGGGCGGAGTCACCTAGTGCAG”, the binding signal was 9440 fluorescence intensity (a.u.).
To “CCTTTTTGTTGGTCTCTGTTCTTGGGTTGGGTTTTCAGTCCGGAGTCACCTAGTGCAG” belongs 20800 fluorescence intensity (a.u.); to “TTTTCACTTCCTATCGAGGTCATTTGTCCTGTTAACTTAACGGAGTCACCTAGTGCAG”, 8070 fluorescence intensity (a.u.).
The figure for “CCTGTAATACTCTCTCCGTCTATAAATATTTGACGCCGTTCGGAGTCACCTAGTGCAG” is 8560 fluorescence intensity (a.u.); for “TATCGCTTACTACACCCTTATGCTAAAATAAGTTTTGTTTCGGAGTCACCTAGTGCAG” it is 10400 fluorescence intensity (a.u.); for “TTCCAATTCGGATTTCTTGCTGTTGTTGTTGGGGTGTTCGCGGAGTCACCTAGTGCAG” it is 8770 fluorescence intensity (a.u.).
To “ACTATATTTGTTTCGACAGGTTTTTAATAGTATTTGGCCGCGGAGTCACCTAGTGCAG” belongs 9500 fluorescence intensity (a.u.); to “GCCGCTTGGACTGCACCTCTGCCGCTCGGGCCGCCAATCACGGAGTCACCTAGTGCAG”, 8580 fluorescence intensity (a.u.).
Take “CGTGCGACTTTTTCCTCTTGTCCCCTCGACAAATCTATGCCGGAGTCACCTAGTGCAG”: the binding signal is 8620 fluorescence intensity (a.u.).
Take “CCAAACACTTCACCGGTTCACCCTTTGTCCTATTCCGTTCCGGAGTCACCTAGTGCAG”: the binding signal was 9550 fluorescence intensity (a.u.).
The figure for “TCATCGCCATTTCTGACACTCCTTACCCAACTACAATGTCCGGAGTCACCTAGTGCAG” is 8200 fluorescence intensity (a.u.).
On to “CTCCACTCCCTCAACCTACTCGCGGTGCCGCCATTGCCGCCGGAGTCACCTAGTGCAG”, for which the binding signal is 9260 fluorescence intensity (a.u.).
To “TATGGTTGGTTCGAAGTTCTTTTGCTGCTGAATGTTATATCGGAGTCACCTAGTGCAG” belongs 13600 fluorescence intensity (a.u.); to “AGACCCAATATTGCTCCAACCAGTGAAGCTACCGAGTTTCCGGAGTCACCTAGTGCAG”, 8370 fluorescence intensity (a.u.).
To “CTACCCCTACCTGGCGCGCCAACTGTCGAAACTAGATTTCCGGAGTCACCTAGTGCAG” belongs 9070 fluorescence intensity (a.u.); to “TTTGCGGCCTTTGTTGTGAGACACTCAAAAGAACATGTACCGGAGTCACCTAGTGCAG”, 8430 fluorescence intensity (a.u.).
To “TATTAGTTATGTTTGGAGTACTTGTCACATGTAAAGCATACGGAGTCACCTAGTGCAG” belongs 8450 fluorescence intensity (a.u.).
Regarding “TCTTTTAGATTTTTTTGTGATTTGTGGATGATTTTATTTCCGGAGTCACCTAGTGCAG”, the binding signal is 9560 fluorescence intensity (a.u.).
